Series [1] relates to A6 enrichment culture. Nature of the series: Feammox incubation of various PFAS with A6 enrichment culture, day 60. Also noted: species or system Acidimicrobiaceae sp. A6. The note with it: initial conc. 100 mg/l; for % defluorination of initial compound degraded: ratio of F− produced to F− expected for complete defluorination.
The subject of series [2] is pure strain A6 (Acidimicrobiaceae sp.). Briefly: PFAS biodegradation incubation, pure strain A6. The note with it: 100 ppb.
The nature of series [3]: PFAS biodegradation incubation, autoclave control. The settings on record: 100 ppb, autoclaved.
Series [4] concerns pure strain A8 (Terrimonas sp.). Briefly: PFAS biodegradation incubation, pure strain A8. The settings on record: 100 ppb.
Series [5] concerns A6 enrichment culture. Nature of the series: PFOA and PFOS enrichment culture incubations vs. time with intermediates, end products and fluorine balance. Details: species or system Acidimicrobiaceae sp. A6. The note with it: fluorine balance, PFOS experiment.

Eleven compounds from patent US12252423B2, “Biodegradation of fluorochemicals” (The Trustees of Princeton University, priority 2018, dated 2025) can be followed below.

`OCCC(F)(F)C(F)(F)C(F)(F)C(F)(F)C(F)(F)C(F)(F)F` [6:2 FTOH, 6:2 Fluorotelomer alcohol]: in the series on A6 enrichment culture [1], the Acetate produced is 6.6 mg/L, the Decrease in concentration came out at 19.4 mg/L, the “F^− produced” value amounted to 7.1 mg/L and the “% defluorination of initial compound degraded” value (“% defluorination” below) is 55%.

Take `O=S(=O)(O)CCC(F)(F)C(F)(F)C(F)(F)C(F)(F)C(F)(F)C(F)(F)F` [6:2 FTS, 6:2 Fluorotelomer sulfonate]: in series [2], the “One week removal (%)” value was determined as 3.05%. For the same compound, in series [3], the “One week removal (%)” value was −0.40%. In addition, in the series with A6 enrichment culture [1], the Acetate produced is 11.0 mg/L, the Decrease in concentration worked out at 18.0 mg/L, the “F^− produced” value was 11.4 mg/L and the “% defluorination” value is listed as 109%. Moreover, the “One week removal (%)” value in series [4] stood at 2.77%.

With `OCCC(F)(F)C(F)(F)C(F)(F)C(F)(F)C(F)(F)C(F)(F)C(F)(F)C(F)(F)F` [8:2 FTOH, 8:2 Fluorotelomer Alcohol], in series [2], the “One week removal (%)” value worked out at 2.08%. In series [3], the “One week removal (%)” value is listed as 0.05%. Also, in the series on A6 enrichment culture [1], the Acetate produced was found to be 15.0 mg/L, the Decrease in concentration turned out to be 25.1 mg/L, the “F^− produced” value stood at 17.5 mg/L and the “% defluorination” value was found to be 100%. Also, in series [4], the “One week removal (%)” value is 1.42%.

Regarding `O=P(O)(OCCC(F)(F)C(F)(F)C(F)(F)C(F)(F)C(F)(F)C(F)(F)C(F)(F)C(F)(F)F)OCCC(F)(F)C(F)(F)C(F)(F)C(F)(F)C(F)(F)C(F)(F)C(F)(F)C(F)(F)F` [8:2 diPAP, 8:2 Fluorotelomer phosphate diester], in the series with A6 enrichment culture [1], the Acetate produced came out at 2.1 mg/L, the Decrease in concentration amounted to 16.2 mg/L, the “F^− produced” value stood at 1.8 mg/L and the “% defluorination” value is listed as 17%.

Take `N.O=C(O)C(F)(F)C(F)OC(F)(F)C(F)(F)C(F)(F)OC(F)(F)F` (stereo not drawn) [ADONA, Ammonium 4,8-dioxa-3H-perfluorononanoate]: in the series on A6 enrichment culture [1], the Acetate produced worked out at 3.0 mg/L, the Decrease in concentration was found to be 12.3 mg/L, the “F^− produced” value stood at 1.0 mg/L and the “% defluorination” value is 15%.

As for `O=C(O)C(F)(F)C(F)(F)C(F)(F)F` [HFBA, Heptafluorobutyric acid], the “Two week removal (%)” value is 7.20% in series [2], 0.31% in series [3] and 10.44% in series [4].

As to `O=C(O)C(F)(F)C(F)(F)C(F)(F)F` [PFBA, Perfluorobutanoic acid], in the series on A6 enrichment culture [1], the Acetate produced is 31.1 mg/L, the Decrease in concentration was 41.3 mg/L, the “F^− produced” value was determined as 24.9 mg/L and the “% defluorination” value is on record as 97%.

As for `O=S(=O)(OCC(F)(F)F)C(F)(F)C(F)(F)C(F)(F)C(F)(F)F` [PFBS, 2,2,2-Trifluoroethyl Nonafluorobutanesulfonate], the “Two week removal (%)” value in series [2] stood at 5.92%. Further, the “Two week removal (%)” value in series [3] is −0.81%. In the series on A6 enrichment culture [1], the Acetate produced stood at 16.2 mg/L, the Decrease in concentration came to 35.2 mg/L, the “F^− produced” value was found to be 15.9 mg/L and the “% defluorination” value came to 79%. Moreover, the “Two week removal (%)” value in series [4] is listed as 5.38%.

Take `O=C(O)C(F)(F)C(F)(F)C(F)(F)C(F)(F)C(F)(F)C(F)(F)C(F)(F)F` [PFOA, Perfluorooctanoic acid]: in series [2], the “Two week removal (%)” value is on record as 7.92%. The “Two week removal (%)” value in series [3] is given as 0.18%. For the same compound, in the series with A6 enrichment culture [1], the Acetate produced amounted to 23.9 mg/L, the Decrease in concentration was 44.4 mg/L, the “F^− produced” value was determined as 29.5 mg/L and the “% defluorination” value is recorded as 97%. For the same compound, the “Two week removal (%)” value in series [4] was found to be 5.38%.

For `O=S(=O)(O)C(F)(F)C(F)(F)C(F)(F)C(F)(F)C(F)(F)C(F)(F)C(F)(F)C(F)(F)F` [PFOS, Perfluorooctane sulfonate], in the series with A6 enrichment culture [5] (0 days), the “F in PFOS” value is given as 3.54 mM and the “F in PFPrA” value was determined as 0 mM. In the series on A6 enrichment culture [5] (10 days), the “F in PFOS” value worked out at 3.06 mM and the “F in PFPrA” value is recorded as 0.009 mM. Moreover, in the series with A6 enrichment culture [5] (45 days), the “F in PFOS” value was determined as 2.58 mM and the “F in PFPrA” value is 0.005 mM. For the same compound, in the series with A6 enrichment culture [5] (60 days), the “F in PFOS” value came out at 2.45 mM and the “F in PFPrA” value came to 0.07 mM. Moreover, in the series with A6 enrichment culture [1], the Acetate produced amounted to 10.0 mg/L, the Decrease in concentration was 39.2 mg/L, the “F^− produced” value was 18.0 mg/L and the “% defluorination” value is 71%.

Turning to `NS(=O)(=O)C(F)(F)C(F)(F)C(F)(F)C(F)(F)C(F)(F)C(F)(F)C(F)(F)C(F)(F)F` [PFOSA, Perfluorooctane sulfonamide], in the series with A6 enrichment culture [1], the Acetate produced was 4.7 mg/L, the Decrease in concentration came to 18.5 mg/L, the “F^− produced” value is 6.1 mg/L and the “% defluorination” value is recorded as 51%.
